Laboratory results published in publication PMC9898264.

By UniProt entry, the sequences of proteins in these tests, tags left out. Residues count along the entry.
UniProt Q68FX9, residues 37-310: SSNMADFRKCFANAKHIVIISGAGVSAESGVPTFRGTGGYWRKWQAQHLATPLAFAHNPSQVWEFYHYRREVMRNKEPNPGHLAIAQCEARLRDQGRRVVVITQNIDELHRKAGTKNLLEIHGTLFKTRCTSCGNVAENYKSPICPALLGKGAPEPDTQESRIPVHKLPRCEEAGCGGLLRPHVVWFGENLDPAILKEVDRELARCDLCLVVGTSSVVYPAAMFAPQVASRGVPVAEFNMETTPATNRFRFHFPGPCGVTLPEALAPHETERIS
UniProt Q9JM53, residues 102-612: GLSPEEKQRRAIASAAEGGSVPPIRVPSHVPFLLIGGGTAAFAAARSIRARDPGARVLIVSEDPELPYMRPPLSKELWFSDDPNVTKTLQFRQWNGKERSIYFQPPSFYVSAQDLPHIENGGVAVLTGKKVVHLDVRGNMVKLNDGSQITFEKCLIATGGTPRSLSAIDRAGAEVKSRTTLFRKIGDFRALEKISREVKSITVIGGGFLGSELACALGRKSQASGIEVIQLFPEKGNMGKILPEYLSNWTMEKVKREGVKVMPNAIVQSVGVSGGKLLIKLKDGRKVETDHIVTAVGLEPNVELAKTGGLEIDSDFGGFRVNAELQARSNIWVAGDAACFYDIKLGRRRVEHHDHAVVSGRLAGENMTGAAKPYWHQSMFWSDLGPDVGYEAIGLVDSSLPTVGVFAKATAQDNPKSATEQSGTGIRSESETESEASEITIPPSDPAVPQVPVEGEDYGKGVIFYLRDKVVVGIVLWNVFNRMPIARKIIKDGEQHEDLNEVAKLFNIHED

Target: Sirtuin 5 (SIRT5) (rat (endogenous in rat NP cells)) (UniProt Q68FX9)
Test: affinity purification with mass spectrometry; co-immunoprecipitation products of endogenous SIRT5 from rat NP cells, separated by HPLC, mass spectra searched with MaxQuant

binding: binds
Substance: apoptosis-inducing factor mitochondrion-associated 1 (AIFM1) (from UniProt Q9JM53 102-612)

No constants are given. Whether binding was seen depends on the method and setting. In cells and extracts the contact can be indirect. These calls come from enrichment with a bait or labelling near it, and not all partners need be listed.
